A short description of this series: Particle size of fluorescent degradation products by dialysis of partially digested Hb-AMC. Conditions: for reduction in fluorescent signal on dialysis: partially trypsin-digested Hb-AMC.

Take “Hb-AMC: AMC-labeled hemoglobin, made by reductive labeling with AMC and sodium cyanoborohydride”: the “share of fluorescent products between 500 Da and 5 kDa” value is on record as 15%; the “share of fluorescent products smaller than 500 Da” value stood at 80%; the “share of signal from peptides larger than 5 kDa” value is on record as “about 5%”. Further, the “reduction in fluorescent signal on dialysis” value (“reduction” below) (1 kDa filter) is listed as “≈ 90%”. For the same substance, under “5 kDa filter”, the “reduction” value is given as “≈ 95%”. The “reduction” value (500 Da filter) is given as “≈ 80%”.

Values taken from US9389182B2 (University of Southern California, priority 2011, dated 2016).
